PubChem BioAssay AID743454 | Peter MacCallum Cancer Centre, 2014
The deposit covers about 18,000 reagents; below is a random part of them. In the full data, 450 (2.5%) are marked active. 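Single biological run; no consistent viability z cut-off exists, so the class columns, not z-scores, define the calls.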 A number with no mark means an inactive call.

Assay: 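Search for knock-downs that restore vorinostat killing in resistant colon cancer cells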 (primary screen)
Cell system: human HCT116-VR colon cancer cells, selected for vorinostat resistance
Reagent: siRNA pool against human genes, 40 nM siRNA pool
Time to read-out: vorinostat for 24 h, read-out about 72 h after transfection
Challenge: vorinostat at 2.5 µM final
Detection: 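Cell viability by CellTiter-Fluor and caspase 3/7 activity by luminescence, each scaled to mock wells per plate, duplicates averaged, then robust z-scored over all plates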
Scale: viability robust z-score: higher = more viable cells than screen typical; caspase robust z-score: higher = more caspase 3/7 activity than screen typical
Call rule: 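a knock-down is a hit when classed RV1 or RV2 for lowered viability, or CA1 or CA2 for caspase activation; those lethal without drug were dropped; hits were retested singly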

| gene knocked down | viability hit class | caspase hit class | viability robust z-score | caspase robust z-score |
| --- | --- | --- | --- | --- |
| DCTD (GeneID 1635) | no change | no change | 1.52 | 0.08 |
| MYH10 (GeneID 4628) | no change | no change | 0.48 | -0.68 |
| PSMA6 (GeneID 5687) | no change | no change | -5.32 | 3.92 |
| ABCA6 (GeneID 23460) | no change | no change | -0.25 | 0.14 |
| GBGT1 (GeneID 26301) | no change | no change | 0.8 | 1 |
| EXOSC5 (GeneID 56915) | RV2 (reduced viability) (active) | no change | -3.17 | 1.37 |
| CLEC3B (GeneID 7123) | no change | no change | -3.24 | 3.47 |
| TMIE (GeneID 259236) | no change | no change | 0.2 | 0.18 |
| PSMD4 (GeneID 5710) | no change (active) | CA2 (caspase activation) | 0.05 | 8.03 |
| MEF2A (GeneID 4205) | no change | no change | 1.24 | -0.58 |
| PMPCA (GeneID 23203) | no change | no change | 0.33 | -0.77 |
| PLPP5 (GeneID 84513) | no change | no change | -0.1 | -0.26 |
| EIF3K (GeneID 27335) | no change | no change | -0.37 | -0.46 |
| BCLAF1 (GeneID 9774) | no change | no change | -2.23 | -0.16 |
| PKIA (GeneID 5569) | no change | no change | -0.85 | -1.04 |
| SIRT4 (GeneID 23409) | no change | no change | 1.7 | -0.14 |
| RBM14 (GeneID 10432) | no change | no change | 0.42 | 2.33 |
| EMC7 (GeneID 56851) | no change | no change | -0.55 | 2 |
| DNAAF8 (GeneID 146562) | no change | no change | 0.08 | -0.77 |
| ZFAND3 (GeneID 60685) | no change | no change | -0.2 | -1.06 |
| SLC22A12 (GeneID 116085) | no change | no change | -0.11 | -0.65 |
| PRICKLE2 (GeneID 166336) | no change (active) | CA1 (caspase activation) | -0.98 | 11.4 |
| GPR141 (GeneID 353345) | no change | no change | 1.13 | -1 |
| FAM117B (GeneID 150864) | no change | no change | -0.41 | -0.88 |
| WRNIP1 (GeneID 56897) | no change | no change | 0.13 | -0.75 |
| PABPC4 (GeneID 8761) | no change | no change | -0.47 | -0.44 |
| CAMTA2 (GeneID 23125) | no change | no change | -0.34 | -0.75 |
| CRYBA1 (GeneID 1411) | no change | no change | 0.68 | 0.11 |
| LRFN2 (GeneID 57497) | no change | no change | 0.9 | -0.33 |
| GGTLC1 (GeneID 92086) | no change | no change | 0.89 | 0.78 |
| CLEC6A (GeneID 93978) | no change | no change | 0.24 | -0.52 |
| CAD (GeneID 790) | no change | no change | 0.39 | -0.76 |
| OR2T2 (GeneID 401992) | no change | no change | 0.01 | 0.76 |
| TOP6BL (GeneID 79703) | no change | no change | 0.47 | -1.18 |
| OXCT2 (GeneID 64064) | no change | no change | 0.62 | 1.4 |
| PEX5 (GeneID 5830) | no change | no change | 0.05 | 0.09 |
| ARSI (GeneID 340075) | no change | no change | -0.58 | 1.15 |
| TMBIM6 (GeneID 7009) | no change | no change | 0.92 | -0.21 |
| SLC7A2 (GeneID 6542) | no change | no change | -0.58 | -0.74 |
| DUS4L (GeneID 11062) | no change | no change | 1.38 | -1.02 |
| TIMELESS (GeneID 8914) | no change | no change | 1.15 | 1.62 |
| DHX38 (GeneID 9785) | no change | no change | -2.45 | 3.94 |
| TMEM53 (GeneID 79639) | no change | no change | -0.9 | -0.97 |
| CHFR (GeneID 55743) | no change | no change | -1.95 | 1.46 |
| DDX19A (GeneID 55308) | no change | no change | -2.36 | 3.46 |
| FASTKD2 (GeneID 22868) | no change | no change | 0.23 | 2.38 |
| AKIRIN2 (GeneID 55122) | no change | no change | 0.76 | 2.29 |
| DCTPP1 (GeneID 79077) | no change | no change | -0.11 | -0.53 |
| TESK2 (GeneID 10420) | no change | no change | 0.66 | -0.94 |
| RPS3A (GeneID 6189) | no change | no change | -4.62 | -1.98 |
| TCL1B (GeneID 9623) | no change | no change | 0 | 0.42 |
| RUNX1T1 (GeneID 862) | no change | no change | -0.8 | 1.9 |
| L2HGDH (GeneID 79944) | no change | no change | -1.92 | 0.73 |
| EXOG (GeneID 9941) | no change | no change | 0.75 | 1.08 |
| ARHGEF9 (GeneID 23229) | no change | no change | 0.88 | -0.94 |
| PTGDS (GeneID 5730) | no change | no change | 1.42 | 1.98 |
| APCDD1 (GeneID 147495) | no change | no change | -0.72 | 0.34 |
| ARHGAP6 (GeneID 395) | no change | no change | -0.1 | -0.99 |
| CENPV (GeneID 201161) | no change | no change | 0.14 | 5 |
| KRT84 (GeneID 3890) | no change | no change | 0.36 | 0.94 |
| GDF5 (GeneID 8200) | no change | no change | 1.39 | -0.22 |
| GPR20 (GeneID 2843) | no change | no change | -0.98 | 0.42 |
| PRR15L (GeneID 79170) | no change | no change | -0.14 | 2.44 |
| PROKR1 (GeneID 10887) | no change | no change | -0.92 | -0.58 |
| PPHLN1 (GeneID 51535) | no change | no change | 0.48 | -0.35 |
| TIMM44 (GeneID 10469) | no change | no change | -0.54 | -1.13 |
| RHBDL2 (GeneID 54933) | no change | no change | 0.94 | -0.92 |
| PSMC1 (GeneID 5700) | no change | no change | -4.27 | 3.08 |
| ACMSD (GeneID 130013) | no change | no change | 0.66 | -0.07 |
| SPARCL1 (GeneID 8404) | no change | no change | 0.3 | -0.29 |
| HLA-DQA1 (GeneID 3117) | no change | no change | -2.13 | 2.09 |
| ATP1A3 (GeneID 478) | no change | no change | -0.23 | -0.5 |
| C3AR1 (GeneID 719) | no change | no change | 0.18 | -0.6 |

Part of the list above, reduced to “caspase hit class”:
CENPV (GeneID 201161) = no change
KRT84 (GeneID 3890) = no change
GDF5 (GeneID 8200) = no change
GPR20 (GeneID 2843) = no change
PRR15L (GeneID 79170) = no change
PROKR1 (GeneID 10887) = no change
PPHLN1 (GeneID 51535) = no change
TIMM44 (GeneID 10469) = no change
RHBDL2 (GeneID 54933) = no change
PSMC1 (GeneID 5700) = no change
ACMSD (GeneID 130013) = no change
